In assay [1] the target is ClpP^trap-SPA (catalytically inactive ClpP S111A with SPA tag) (E. coli) (UniProt P0A6G7). In words: condition: only in the strain lacking TF (ΔclpPΔclpAΔsmpBΔtig); affinity purification with mass spectrometry; ClpP^trap-SPA pulled down on FLAG antibody resin from lysate of MC4100 ΔclpPΔclpAΔsmpBΔtig (no TF strain), eluted with FLAG peptide, LC-MS/MS.
Assay [2] has the same target. In words: affinity purification with mass spectrometry; ClpP^trap-SPA pulled down on FLAG antibody resin from lysate of MC4100 ΔclpPΔclpAΔsmpB (TF strain), eluted with FLAG peptide, LC-MS/MS.

No constants are given. Whether binding was seen depends on the method and setting. In cells and extracts the contact can be indirect. A yes stands for co-enrichment or nearness to the bait. Other partners may have been found. For some assays here: No binding means not detected with the bait.

As to RpoS (from UniProt P13445 1-330), the binding entry is recorded as “no binding” in assay [1] and “binds” in assay [2].

(Values after article PMC7804408.)
